PubChem BioAssay AID1053208 – Peter MacCallum Cancer Centre | 2014
The deposit covers about 17,000 reagents; this is a part drawn at random. 788 of all reagents (4.7%) were called active. 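Calls rest on z-score classes alone; an extra cut-off of viability at most 70% of control was not applied to them.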 Not all columns of the deposit are shown. No sequences are given here.

Purpose: 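Synthetic lethal interactions between gene loss and doxorubicin in osteosarcoma cells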 (primary screen)
Cell system: mouse osteosarcoma cells, early-passage culture from an engineered mouse model of fibroblastic bone tumour
Reagent: siRNA pool against mouse genes, 40 nM
Duration: about 120 h (48 h before drug, then 72 h with drug)
Conditions: doxorubicin 100 nM for 72 h, roughly 30-40% inhibitory dose
Detection: 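Luminescent ATP signal taken as viability with or without 100 nM doxorubicin for 72 h; mean of two wells set against non-targeting siRNA and turned into robust z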
Scale: viability z-score with doxorubicin: higher = more viable cells under doxorubicin; viability z-score without drug: higher = more viable cells with knock-down alone
Rule for the call: 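a pool counts as active when its viability z-score with doxorubicin is -2 or below and its z-score without drug lies between -2 and 2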

4930579K19Rik scored combined z-score class no change with or without drug; viability z-score with doxorubicin -0.34; viability z-score without drug -1.52; inactive.
Depletion of Rai14 came out at: combined z-score class no change with or without drug; viability z-score with doxorubicin 0; viability z-score without drug -1.69; inactive.
For Tas2r110, the entry reads combined z-score class no change with or without drug; viability z-score with doxorubicin 0.79; viability z-score without drug 0.51; inactive.
After knock-down of Edaradd the results were combined z-score class no change with or without drug; viability z-score with doxorubicin 0; viability z-score without drug 0.51; inactive.
With knock-down of Dlx2, the screen gave combined z-score class no change with or without drug; viability z-score with doxorubicin 0.45; viability z-score without drug 0.34; inactive.
Depletion of Lrrc10 came out at: combined z-score class low cell count without drug only; viability z-score with doxorubicin -1.8; viability z-score without drug -2.19; inactive.
Arl11 scored combined z-score class no change with or without drug; viability z-score with doxorubicin -0.9; viability z-score without drug -0.34; inactive.
After knock-down of Vps18 the results were combined z-score class no change with or without drug; viability z-score with doxorubicin -0.9; viability z-score without drug -1.35; inactive.
Zfp87 showed combined z-score class no change with or without drug; viability z-score with doxorubicin 1.24; viability z-score without drug 0.17; inactive.
Silencing of Itpa came out at: combined z-score class no change with or without drug; viability z-score with doxorubicin -0.11; viability z-score without drug 0.17; inactive.
Depletion of Ripk4 gave: combined z-score class no change with or without drug; viability z-score with doxorubicin 0.22; viability z-score without drug -0.17; inactive.
With knock-down of Vdac2, the record shows combined z-score class low cell count with doxorubicin only; viability z-score with doxorubicin -4.5; viability z-score without drug -1.35; active.
After knock-down of Sox5 the results were combined z-score class no change with or without drug; viability z-score with doxorubicin 0.34; viability z-score without drug 0.84; inactive.
Against Cdh2, the entry reads combined z-score class no change with or without drug; viability z-score with doxorubicin -1.35; viability z-score without drug -0.17; inactive.
With knock-down of Rab8a, the screen gave combined z-score class no change with or without drug; viability z-score with doxorubicin 1.12; viability z-score without drug 0; inactive.
Knock-down of Ncoa4 resulted in: combined z-score class no change with or without drug; viability z-score with doxorubicin 0.9; viability z-score without drug -1.01; inactive.
Knock-down of Rrp15 gave: combined z-score class no change with or without drug; viability z-score with doxorubicin 0.56; viability z-score without drug -0.17; inactive.
For Krtap6-1, the entry reads combined z-score class no change with or without drug; viability z-score with doxorubicin -1.35; viability z-score without drug 0.17; inactive.
After knock-down of Samd8 the results were combined z-score class low cell count without drug only; viability z-score with doxorubicin -1.57; viability z-score without drug -2.19; inactive.
